Results are given in words; binding and its absence hold for the method and conditions named. For some of these results: In cells and extracts the contact can be indirect. Some results given as binding are weak or reduced against the parent protein; the word gives no strength. For some of these results: Sequences can lack the tags named with a protein.
Assays:
[1] = biological target: T1, Escherichia coli magnesium transporter MgtA (from pETDuet-1-MgtAS, co-overexpressed with MgtS) (Escherichia coli) (UniProt P0ABB8); experiment: native gel or EMSA; Blue Native-PAGE (4-16% BisTris) of membranes (10 mg/mL) solubilised with 1% GDN for 16 h at 4°C; blot with anti-FLAG or anti-His6x
T1 sequence: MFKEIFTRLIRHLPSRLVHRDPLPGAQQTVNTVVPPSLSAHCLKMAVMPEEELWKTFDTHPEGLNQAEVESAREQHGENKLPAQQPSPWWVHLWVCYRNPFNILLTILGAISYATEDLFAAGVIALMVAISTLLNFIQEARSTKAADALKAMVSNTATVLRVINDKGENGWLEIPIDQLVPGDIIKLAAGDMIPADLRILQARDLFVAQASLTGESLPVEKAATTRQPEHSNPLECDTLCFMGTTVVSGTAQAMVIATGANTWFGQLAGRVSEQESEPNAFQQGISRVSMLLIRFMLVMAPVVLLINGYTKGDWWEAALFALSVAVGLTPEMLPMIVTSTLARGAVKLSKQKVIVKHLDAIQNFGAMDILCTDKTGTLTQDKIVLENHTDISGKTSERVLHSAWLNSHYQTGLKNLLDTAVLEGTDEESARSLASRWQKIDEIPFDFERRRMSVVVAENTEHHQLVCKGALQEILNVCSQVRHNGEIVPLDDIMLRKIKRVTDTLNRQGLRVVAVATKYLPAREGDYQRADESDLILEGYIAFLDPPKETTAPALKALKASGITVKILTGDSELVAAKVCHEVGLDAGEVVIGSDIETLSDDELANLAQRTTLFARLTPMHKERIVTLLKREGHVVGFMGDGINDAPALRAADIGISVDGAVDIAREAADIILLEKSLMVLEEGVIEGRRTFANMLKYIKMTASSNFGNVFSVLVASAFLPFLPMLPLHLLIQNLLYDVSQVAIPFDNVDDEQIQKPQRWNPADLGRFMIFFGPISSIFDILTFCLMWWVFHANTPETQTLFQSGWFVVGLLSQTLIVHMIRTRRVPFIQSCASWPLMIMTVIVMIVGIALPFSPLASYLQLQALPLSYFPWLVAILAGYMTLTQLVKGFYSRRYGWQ

[2] = biological target: T1, Escherichia coli magnesium transporter MgtA (from pETDuet-1-MgtAS, co-overexpressed with MgtS) (Escherichia coli); experiment: condition: only membranes solubilised with 1% DDM or 1% LMNG; native gel or EMSA; Blue Native-PAGE (4-16% BisTris) of membranes (10 mg/mL) solubilised with 1% DDM or 1% LMNG for 16 h at 4°C; blot with anti-FLAG or anti-His6x
[3] = biological target: MgtA co-expressed as two differently tagged copies, MgtA-H6 (pBAD24-MgtA-H6) and MgtA-SPA (pACYC-MgtA-SPA) (Escherichia coli) (UniProt P0ABB8); experiment: co-IP; MgtA-SPA held on FLAG resin from membranes solubilised with 1% GDN, 4°C; eluted with 0.2 M glycine pH 2.4; Western blot with polyclonal anti-MgtA
[4] = biological target: T1, Escherichia coli magnesium transporter MgtA (from pETDuet-1-MgtAS, co-overexpressed with MgtS) (Escherichia coli); experiment: native gel or EMSA; Blue Native-PAGE (4-16% BisTris) of membranes (10 mg/mL) solubilised with 1% DDM or 1% LMNG for 16 h at 4°C; blot with anti-FLAG or anti-His6x

Binder: MLGNMNVFMAVLGIILFSGFLAAYFSHKWDD (peptide, UniProt A5A616 1-31) [31-amino acid MgtS protein of E. coli (co-overexpressed with MgtA from pETDuet-1-MgtAS)]
- binding [1]: binds
- binding [2]: no binding

B1: MgtA co-expressed as two differently tagged copies, MgtA-H6 (pBAD24-MgtA-H6) and MgtA-SPA (pACYC-MgtA-SPA) (protein, UniProt P0ABB8 1-898)
chain: T1 sequence
- binding [3]: binds

B2: Escherichia coli magnesium transporter MgtA (from pETDuet-1-MgtAS, co-overexpressed with MgtS) (natural protein)
chain: T1 sequence
notes: MgtA, E. coli, P-type ATPase Mg2+ transporter, 100 kDa, 898 amino acids; residues from the N-terminal tail (1-36) on are modelled in the dimer structure; That the His tag stands on MgtA is inferred from its elution from Ni-NTA; also called EcMgtA; MgtAS (the purified sample); source: E. coli C43 (DE3), pETDuet-1-MgtAS, co-overexpressed with MgtS; membranes solubilised with 1% GDN (or DDM, LMNG); …
- binding [4]: no binding (condition: solubilised with DDM)

— doi:10.1101/2024.02.28.582502, “Magnesium Transporter MgtA revealed as a Dimeric P-type ATPase” (bioRxiv, 2024)
